# Percent effect of library compounds

Measurements from “University of Dundee, Small-Polar-MMV Screening Library” (2021), ChEMBL document CHEMBL3988442.

A: 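Whole-parasite assay of Trypanosoma brucei over 72 hours; the read-out is not stated. Compounds at 30 µM. Higher reads as stronger inhibition (inferred: compounds with an IC50 in retests scored well above the rest). Values scatter widely below zero; nearly all retest evidence comes from the higher of the two concentrations used. Of about 64,000 compounds tested this way, about 940 (1.5%) reached 50% or more in at least one test.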
B: 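Assay of Toxoplasma gondii numbers, read through their beta-galactosidase reporter with a colour substrate. Concentration: 10 µM. The record gives no direction; the compounds picked for IC50 retests had high values, so higher reads as fewer parasites. About 67,000 compounds were tested under these conditions; 0.38% (about 260) showed 50% or more at least once.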
C: 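Cell assay of Leishmania donovani living inside macrophages; the read-out is not stated. Compounds at 30 µM. The record gives no direction; compounds that gave an IC50 in retests scored well above the rest, so higher reads as stronger inhibition. Of about 69,000 compounds tested this way, about 1,000 (1.5%) reached 50% or more in at least one test.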

Values are the deposited “Percent Effect”, in %. The controls that fix the scale are not given in the record; negative values are as filed. This is an unselected part of the compounds tested. Two or more numbers in one place are separate tests of the same structure; such repeats can differ widely.

With CC(NCC1CCN(CCO)CC1)c1ccc(Cl)cc1 (centres undefined) the screen gave A: 21.11%; B: 13.48%; C: 77.33%.
With [H][C@]12CCN(Cc3ccco3)[C@@]1([H])CC[C@@H](COCC(=O)N1CCCC1)O2 the screen gave A: -31.99%; B: -27.45%; C: 0%.
With CN(Cc1ccc2nsnc2c1)CC1(O)CNCCOC1 (centres undefined) the screen gave A: -3.928%; B: 0.6463%; C: 1.43%.
With Cc1cccc(SC2CCN(C(=O)CCCn3cnnn3)CC2)c1 the screen gave A: 6.498%; C: 53.34%.
With CCCC(=O)N(C)c1cccc2ncccc12 the screen gave A: -16.95%; B: -2.741%; C: 3.572%.
With CC(C)[C@@H]1CN(Cc2cnc3c(S(C)(=O)=O)cnn3c2)C[C@H]1N(C)C the screen gave A: -53.03%; B: 9.906%; C: 8.064%.
With CCS(=O)(=O)NCC1Cn2nnc(-c3cccc(C)c3)c2CO1 (centres undefined) the screen gave A: -42%; B: -25.4%; C: 16.36%.
With CCc1nccn1C1CCCN(C(=O)c2ccc3c(c2)OCCO3)C1 (centres undefined) the screen gave A: 10.46%; B: -1.248%; C: 14.34%.
With CCc1ccc(C(C)NC(=O)N2CCC(n3cncn3)CC2)cc1 (centres undefined) the screen gave A: -7.126%; B: 20.2%; C: 3.34%.
With CCc1nc(N2CCN(c3ncccn3)CC2)c2cnn(C)c2n1 the screen gave A: 14.85%; B: -10.93%; C: 5.838%.
With CC(=O)N1CC[C@H](c2nc3cc(F)ccc3o2)C1 the screen gave A: -5.919%; B: -4.487%; C: 26.59%.
With C[C@@]1(O)CCN(C2CCOCC2)C[C@H]1n1ccc(=O)[nH]c1=O the screen gave A: -16.58%; B: 10.01%; C: 10.17%.
With COc1ccccc1C1=NOC(CC2(C(=O)NC(C)C)CCOCC2)C1 (centres undefined) the screen gave A: -13.72%; B: -8.622%; C: 11.8% & 19.27%.
With CSC(C)C(=O)N(C)CCCc1cc(-c2ccccc2)no1 (centres undefined) the screen gave B: 8.407%; C: 18.53%.
With COc1ccc(F)c(CN2CCCC(O)(CNCc3ncc[nH]3)C2=O)c1 (centres undefined) the screen gave A: -6.505%; B: 6.817%; C: 9.905%.
With Cc1nc(C)c(C(=O)N2CCC(O)(Cn3ccc4ccncc43)CC2)s1 the screen gave A: -8.902%; B: -1.107%; C: -5.567%.
With COc1cc(CN2CC[C@@H](N3CCCCCC3)[C@H](O)C2)cc(Cl)c1OC the screen gave A: 3.184%; B: 6.876%; C: 50.85%.
With CCN1C(=O)C(c2ccccc2)CC12CCN(c1ncccn1)CC2 (centres undefined) the screen gave A: -20.26%; B: -12.18%; C: -12.16%.
With Cc1cnc2c(C(=O)N3CCCC(OCc4ccccn4)C3)cnn2c1 (centres undefined) the screen gave A: -55.57%; B: 14.19%; C: 1.316%.
With O=C(O)C(F)(F)F.O=C(O)C(F)(F)F.c1csc(CN2CC3(CCN(Cc4ccsc4)C3)C2)n1 the screen gave A: 0.2703%; B: -0.9577%; C: -13.89%.
With Cc1nc(C2CCCN2CC(=O)N(Cc2ccsc2)C2CC2)no1 (centres undefined) the screen gave A: 39.31%; B: 6.677%; C: 17.99%.
With CCC(C)(C)NC(=O)CSCc1ccc(S(=O)(=O)N(C)C)o1 the screen gave A: -3.078%; B: -6.197%; C: 9.095%.
With Cc1noc(CN2CC=C(c3cnn(C4CCS(=O)(=O)C4)c3)CC2)n1 (centres undefined) the screen gave A: -148.3%; B: 1.514%; C: -5.95%.
With Cc1nc(CN2CCc3ncnc(-c4cccnc4)c3CC2)cs1.O=C(O)C(F)(F)F.O=C(O)C(F)(F)F the screen gave A: -110.8%; B: 35.87%; C: -11.4%.
With Cc1ccc(C(=O)N2CCCC3(CCCC(=O)N3C)C2)cc1F (centres undefined) the screen gave A: -11.99%; B: 8.765%; C: 24.97%.
With CCN1CC2(CC1=O)CN(C(=O)NC(C)C)CCN(C(=O)C(C)C)C2 (centres undefined) the screen gave A: -13.95%; B: -28.5%; C: -6.43%.
With COCCN1CCC2(CCN(C(=O)c3ccc(F)cc3)CC2)C1=O the screen gave A: -27.34%; B: 11.75%; C: -10.74%.
With Cc1cnn(CCCNC(=O)NCCS(=O)(=O)Nc2ccccc2)c1 the screen gave A: -35.63%; B: 6.814%; C: -16.89%.
With CN(Cc1cccnc1)CC1CN(C(=O)C2CC2)Cc2nccn2C1.O=C(O)C(F)(F)F.O=C(O)C(F)(F)F (centres undefined) the screen gave A: -24.55%; B: 1.277%; C: 27.02%.
With [H][C@@]12CS(=O)(=O)C[C@]1([H])N(C(=O)NCCc1ccc(F)cc1)CCN2C the screen gave A: -6.087%; B: 1.847%; C: 5.729%.
With CN1CCOCC2(CCCN(C(=O)c3ccccc3F)C2)C1.O=C(O)C(F)(F)F (centres undefined) the screen gave A: -22.65%; B: -6.059%; C: 19.89%.
With CC(C#N)CNS(=O)(=O)c1ccc(F)c(Br)c1 (centres undefined) the screen gave A: -4.207%; B: -9.459%; C: 9.974%.
With O=C(Cc1cccc(O)c1)NCCCNC(=O)c1cccc(F)c1 the screen gave A: -1.857%; B: -0.2612%; C: 15.11%.
With CC(=O)Nc1nccn1Cc1ccccc1Cl the screen gave A: 11.34%; B: -7.904%; C: 3.827%.
With [H][C@@]12CS(=O)(=O)C[C@]1([H])N(Cc1cnn(-c3cccc(C)c3)c1)CCN2C the screen gave A: -15.29%; B: 6.528%; C: 6.322%.
With CCc1ccccc1OC1CN(C(=O)c2cccs2)C1 the screen gave A: -22.21%; B: 1.328%; C: 6.267%.
With COCCC(=O)Nc1nccn1Cc1ccc(Br)cc1 the screen gave B: -10.66%; C: -16.91%.
With Cc1cccc(CNC(=O)N(CCCO)C2CCc3ccccc32)n1 (centres undefined) the screen gave A: -6.764%; B: -37.88%; C: -29.32%.
With Cl.O=C(Nc1cccc(CNCc2cccs2)c1)C1CC1 the screen gave B: 12.4%; C: 22.69%.

Some entries from above, unchanged:

For [H][C@@]12CS(=O)(=O)C[C@]1([H])N(C(=O)NCCc1ccc(F)cc1)CCN2C the result was A: -6.087%; B: 1.847%; C: 5.729%.
For CCc1ccccc1OC1CN(C(=O)c2cccs2)C1 the result was A: -22.21%; B: 1.328%; C: 6.267%.